In publication PMC7408900:
Numbering of substitutions follows the chain as printed. Construct, isoform or probe ends are uncertain for at least one entry. Weaker means in comparison with the reference protein, sequence or condition of that experiment. For part of these data: At least one verdict was read from the data and is not stated in words by the source. For part of these data: Where a protein sequence is shown, tags need not be part of it.

By UniProt entry, the sequences of proteins in these tests, tags left out.
UniProt P26368, whole entry G154V: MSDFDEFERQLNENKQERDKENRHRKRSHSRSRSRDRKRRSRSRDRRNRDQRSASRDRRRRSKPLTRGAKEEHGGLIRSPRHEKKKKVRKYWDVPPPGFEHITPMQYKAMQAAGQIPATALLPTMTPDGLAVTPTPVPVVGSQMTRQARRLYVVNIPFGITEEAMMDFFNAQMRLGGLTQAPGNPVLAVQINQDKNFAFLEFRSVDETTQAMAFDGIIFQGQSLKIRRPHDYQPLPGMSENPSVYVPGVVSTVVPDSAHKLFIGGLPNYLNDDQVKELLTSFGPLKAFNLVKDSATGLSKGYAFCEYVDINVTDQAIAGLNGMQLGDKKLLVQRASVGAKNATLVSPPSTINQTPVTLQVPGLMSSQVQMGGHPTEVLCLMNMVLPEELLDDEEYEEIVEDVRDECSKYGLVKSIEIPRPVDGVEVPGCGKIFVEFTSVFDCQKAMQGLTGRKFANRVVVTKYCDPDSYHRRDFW
UniProt P26368, whole entry G319V: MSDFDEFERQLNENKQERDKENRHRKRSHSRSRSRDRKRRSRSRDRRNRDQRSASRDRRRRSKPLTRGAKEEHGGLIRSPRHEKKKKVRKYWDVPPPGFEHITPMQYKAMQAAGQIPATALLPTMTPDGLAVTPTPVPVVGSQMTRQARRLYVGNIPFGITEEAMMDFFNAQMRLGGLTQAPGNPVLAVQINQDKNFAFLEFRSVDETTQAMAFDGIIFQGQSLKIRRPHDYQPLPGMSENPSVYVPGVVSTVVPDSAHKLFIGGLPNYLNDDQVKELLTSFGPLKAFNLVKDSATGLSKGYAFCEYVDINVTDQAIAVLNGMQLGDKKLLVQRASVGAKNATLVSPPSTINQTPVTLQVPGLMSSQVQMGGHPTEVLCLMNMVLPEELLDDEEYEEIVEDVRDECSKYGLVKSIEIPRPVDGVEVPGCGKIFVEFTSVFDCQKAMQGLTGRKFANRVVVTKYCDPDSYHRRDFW

Columns and labels:
Assay in all cases: EMSA
PUF60 L140P (human) = molecular target: T1, PUF60 L140P (human) (UniProt Q9UHX1); conditions: EMSA: 40 mM Tris pH 8.0, 5 mM MgCl2, 0.25 ug/uL heparin, 0.01% Triton, 1 mM DTT, room temperature 20 min, 6% native PAGE in 0.5x TBE at 4 C, recombinant protein, protein details: 2xHis-lipoyl-TEV, removed by TEV, label: 5' biotin
T1 sequence (looked up, limits assumed): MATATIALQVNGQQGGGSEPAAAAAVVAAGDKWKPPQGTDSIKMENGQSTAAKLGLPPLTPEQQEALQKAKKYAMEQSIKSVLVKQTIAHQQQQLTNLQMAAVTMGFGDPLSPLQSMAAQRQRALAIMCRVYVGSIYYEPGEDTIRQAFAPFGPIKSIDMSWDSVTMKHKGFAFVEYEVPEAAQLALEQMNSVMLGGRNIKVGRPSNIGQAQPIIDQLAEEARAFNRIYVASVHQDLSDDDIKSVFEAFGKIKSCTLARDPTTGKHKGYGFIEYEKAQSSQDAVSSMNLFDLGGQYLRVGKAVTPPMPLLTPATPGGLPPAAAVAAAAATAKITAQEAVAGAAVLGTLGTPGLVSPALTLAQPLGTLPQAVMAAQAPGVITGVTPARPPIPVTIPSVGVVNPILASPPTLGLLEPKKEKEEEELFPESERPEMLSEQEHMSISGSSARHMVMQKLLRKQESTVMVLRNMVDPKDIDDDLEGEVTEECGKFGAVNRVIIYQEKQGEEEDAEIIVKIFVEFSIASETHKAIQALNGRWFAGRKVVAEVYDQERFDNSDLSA

PUF60 A231P (human) = molecular target: T2, PUF60 A231P (human) (UniProt Q9UHX1); conditions: EMSA: 40 mM Tris pH 8.0, 5 mM MgCl2, 0.25 ug/uL heparin, 0.01% Triton, 1 mM DTT, room temperature 20 min, 6% native PAGE in 0.5x TBE at 4 C, recombinant protein, protein details: 2xHis-lipoyl-TEV, removed by TEV, label: 5' biotin
T2 sequence (looked up, limits assumed): T1 sequence (looked up, limits assumed) with P140L, A231P

PUF60 H169Y (human) = molecular target: T3, PUF60 H169Y (human) (UniProt Q9UHX1); conditions: EMSA: 40 mM Tris pH 8.0, 5 mM MgCl2, 0.25 ug/uL heparin, 0.01% Triton, 1 mM DTT, room temperature 20 min, 6% native PAGE in 0.5x TBE at 4 C, 15-17 nM biotin-RNA, recombinant protein, protein details: 2xHis-lipoyl-TEV, removed by TEV, label: 5' biotin
T3 sequence (looked up, limits assumed): T1 sequence (looked up, limits assumed) with P140L, H169Y

U2AF65 G154V (human) = U2AF65 G154V (human) (UniProt P26368); conditions: 0.26-2.1 uM protein, 17 nM RNA; EMSA: 40 mM Tris pH 8.0, 5 mM MgCl2, 0.25 ug/uL heparin, 0.01% Triton, 1 mM DTT, room temperature 20 min; 6% native PAGE in 0.5x TBE at 4 C; 15-17 nM biotin-RNA; recombinant protein; label: 5' biotin
U2AF65 G319V (human) = U2AF65 G319V (human) (UniProt P26368); conditions: still detectable binding, 0.26-2.1 uM protein; EMSA: 40 mM Tris pH 8.0, 5 mM MgCl2, 0.25 ug/uL heparin, 0.01% Triton, 1 mM DTT, room temperature 20 min; 6% native PAGE in 0.5x TBE at 4 C; 15-17 nM biotin-RNA; recombinant protein; label: 5' biotin
[1] = 0.14-1.25 uM protein, 15-17 nM biotin-RNA

Measured: binding result

CUUUUUGUUUCCUUUUUUUUUUAAUUUAAAGG [UBE2F-cr3'ss-32]
binds more weakly: PUF60 L140P (human); 15-17 nM … | PUF60 A231P (human); 15-17 nM … | PUF60 H169Y (human); lower affinity than can probe, approximate Kd only in figure (no saturation), Hill 6.4 | U2AF65 G154V (human) | U2AF65 G319V (human)

UUCGUGCUGACCUGUCCCUUUUUUUUCCACAGC [AdML]
binds more weakly: PUF60 L140P (human); [1] | PUF60 A231P (human); [1] | PUF60 H169Y (human); intermediate binding, 0.14-1.25 uM protein

UUUUUUUGUUUUGUUUUGUGUUUUUUGAUAGA [UBE2F-can3'ss-32]
binds more weakly: PUF60 L140P (human); 15-17 nM … | PUF60 A231P (human); 15-17 nM … | U2AF65 G154V (human) | U2AF65 G319V (human)
